According to the supplement of paper PMC10060354, “Discovery of a small molecule ligand of FRS2 that inhibits invasion and tumor growth” (Cellular Oncology, 2022):
Many values rest on one well or one pass, so single values are uncertain.

The chains behind the UniProt entries cited, without tags or fusion partners. Where a name states a change or a piece, a line headed by the entry shows the natural chain unless it says otherwise.
UniProt P17980, whole entry: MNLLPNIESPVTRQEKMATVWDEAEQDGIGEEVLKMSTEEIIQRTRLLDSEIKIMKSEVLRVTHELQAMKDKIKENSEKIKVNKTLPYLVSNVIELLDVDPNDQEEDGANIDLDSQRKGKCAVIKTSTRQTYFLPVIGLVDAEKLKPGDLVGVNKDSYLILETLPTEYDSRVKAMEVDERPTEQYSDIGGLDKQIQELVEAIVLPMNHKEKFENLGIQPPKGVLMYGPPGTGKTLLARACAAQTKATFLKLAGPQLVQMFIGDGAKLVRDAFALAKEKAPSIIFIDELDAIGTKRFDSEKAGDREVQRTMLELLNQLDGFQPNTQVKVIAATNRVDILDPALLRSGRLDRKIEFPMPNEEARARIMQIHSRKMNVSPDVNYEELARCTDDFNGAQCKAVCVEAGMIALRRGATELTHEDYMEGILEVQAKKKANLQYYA
UniProt P17544: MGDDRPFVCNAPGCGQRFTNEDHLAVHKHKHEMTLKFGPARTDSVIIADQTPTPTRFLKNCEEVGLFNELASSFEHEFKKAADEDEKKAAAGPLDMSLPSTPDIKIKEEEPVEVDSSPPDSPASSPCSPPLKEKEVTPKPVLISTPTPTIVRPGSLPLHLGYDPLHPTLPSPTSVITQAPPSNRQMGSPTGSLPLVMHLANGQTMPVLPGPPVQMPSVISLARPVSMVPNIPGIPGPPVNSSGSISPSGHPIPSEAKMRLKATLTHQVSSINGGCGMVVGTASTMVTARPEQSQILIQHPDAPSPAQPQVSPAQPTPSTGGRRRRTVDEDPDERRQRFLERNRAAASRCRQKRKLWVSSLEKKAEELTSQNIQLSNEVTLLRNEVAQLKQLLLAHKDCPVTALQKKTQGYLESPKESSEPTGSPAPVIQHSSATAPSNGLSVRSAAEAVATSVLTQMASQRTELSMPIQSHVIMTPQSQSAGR
UniProt Q5T4B2: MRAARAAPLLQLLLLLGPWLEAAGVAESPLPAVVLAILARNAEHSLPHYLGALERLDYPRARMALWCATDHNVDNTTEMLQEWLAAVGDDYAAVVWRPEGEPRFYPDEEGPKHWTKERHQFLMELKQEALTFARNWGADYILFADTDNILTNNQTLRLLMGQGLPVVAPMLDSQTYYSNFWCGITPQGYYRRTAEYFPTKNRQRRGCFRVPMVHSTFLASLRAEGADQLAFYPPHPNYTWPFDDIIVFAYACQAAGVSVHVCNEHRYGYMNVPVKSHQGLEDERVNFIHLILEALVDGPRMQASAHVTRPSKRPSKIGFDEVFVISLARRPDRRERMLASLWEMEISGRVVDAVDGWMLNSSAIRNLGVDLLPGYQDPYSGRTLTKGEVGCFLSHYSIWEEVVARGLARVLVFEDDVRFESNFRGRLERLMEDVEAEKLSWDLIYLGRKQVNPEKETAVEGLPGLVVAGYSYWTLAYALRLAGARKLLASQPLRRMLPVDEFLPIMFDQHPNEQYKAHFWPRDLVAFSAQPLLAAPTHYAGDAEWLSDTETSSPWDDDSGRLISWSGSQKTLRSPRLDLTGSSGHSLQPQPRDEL
UniProt O75845: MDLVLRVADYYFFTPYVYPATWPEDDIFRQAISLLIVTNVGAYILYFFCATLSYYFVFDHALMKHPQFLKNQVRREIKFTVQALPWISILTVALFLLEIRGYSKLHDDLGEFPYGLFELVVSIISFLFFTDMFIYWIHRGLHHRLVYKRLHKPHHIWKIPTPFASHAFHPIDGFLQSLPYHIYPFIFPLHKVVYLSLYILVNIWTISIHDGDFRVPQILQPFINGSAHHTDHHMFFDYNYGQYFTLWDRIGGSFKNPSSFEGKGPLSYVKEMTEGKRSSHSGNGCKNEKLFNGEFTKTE
UniProt Q5VZF2: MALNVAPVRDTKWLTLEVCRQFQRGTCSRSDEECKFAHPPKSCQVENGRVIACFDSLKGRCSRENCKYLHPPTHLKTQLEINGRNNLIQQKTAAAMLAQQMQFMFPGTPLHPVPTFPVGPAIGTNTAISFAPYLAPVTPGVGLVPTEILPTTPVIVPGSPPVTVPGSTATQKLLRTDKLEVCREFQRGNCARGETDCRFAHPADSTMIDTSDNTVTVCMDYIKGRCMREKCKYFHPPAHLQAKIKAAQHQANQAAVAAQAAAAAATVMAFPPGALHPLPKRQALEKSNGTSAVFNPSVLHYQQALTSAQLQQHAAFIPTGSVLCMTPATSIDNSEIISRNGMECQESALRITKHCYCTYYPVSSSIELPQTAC
UniProt Q969X6: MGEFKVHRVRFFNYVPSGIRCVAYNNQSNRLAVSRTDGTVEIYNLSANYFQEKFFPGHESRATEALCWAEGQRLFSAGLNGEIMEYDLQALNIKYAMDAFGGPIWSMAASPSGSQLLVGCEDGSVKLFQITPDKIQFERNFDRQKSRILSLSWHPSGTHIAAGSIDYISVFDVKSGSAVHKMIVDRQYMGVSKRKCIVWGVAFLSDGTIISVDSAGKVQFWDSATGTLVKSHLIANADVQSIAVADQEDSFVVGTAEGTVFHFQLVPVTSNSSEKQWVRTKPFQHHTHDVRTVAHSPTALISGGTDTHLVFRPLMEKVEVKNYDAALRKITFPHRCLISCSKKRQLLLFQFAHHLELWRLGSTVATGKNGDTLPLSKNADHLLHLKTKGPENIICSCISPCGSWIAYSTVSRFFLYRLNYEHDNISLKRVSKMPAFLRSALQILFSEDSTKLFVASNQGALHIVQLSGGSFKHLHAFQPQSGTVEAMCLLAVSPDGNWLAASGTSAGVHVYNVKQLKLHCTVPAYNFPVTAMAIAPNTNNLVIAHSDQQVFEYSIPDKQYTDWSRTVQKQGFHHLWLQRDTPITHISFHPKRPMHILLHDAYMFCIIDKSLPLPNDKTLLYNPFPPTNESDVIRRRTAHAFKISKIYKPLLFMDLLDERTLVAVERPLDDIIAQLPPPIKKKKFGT
UniProt P09669, whole entry: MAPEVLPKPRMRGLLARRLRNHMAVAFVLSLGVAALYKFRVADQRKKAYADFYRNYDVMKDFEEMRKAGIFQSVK
UniProt P61769, whole entry: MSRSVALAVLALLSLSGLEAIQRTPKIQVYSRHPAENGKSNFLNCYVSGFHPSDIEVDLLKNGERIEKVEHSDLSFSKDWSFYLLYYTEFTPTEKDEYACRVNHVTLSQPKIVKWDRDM
UniProt Q9H074: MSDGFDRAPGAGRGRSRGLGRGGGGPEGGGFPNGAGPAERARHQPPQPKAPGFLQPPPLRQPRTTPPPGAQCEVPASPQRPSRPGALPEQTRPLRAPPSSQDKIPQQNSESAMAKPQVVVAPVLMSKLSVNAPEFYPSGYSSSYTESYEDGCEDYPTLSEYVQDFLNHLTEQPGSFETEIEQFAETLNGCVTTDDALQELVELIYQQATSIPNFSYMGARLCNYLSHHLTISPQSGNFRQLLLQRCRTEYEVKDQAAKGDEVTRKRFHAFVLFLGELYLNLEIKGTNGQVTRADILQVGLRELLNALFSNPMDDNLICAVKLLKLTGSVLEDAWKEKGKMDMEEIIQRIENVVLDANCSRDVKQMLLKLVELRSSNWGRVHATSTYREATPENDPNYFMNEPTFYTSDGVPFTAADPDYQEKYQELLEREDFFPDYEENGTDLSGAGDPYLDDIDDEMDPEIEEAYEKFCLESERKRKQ
UniProt Q8IYB5: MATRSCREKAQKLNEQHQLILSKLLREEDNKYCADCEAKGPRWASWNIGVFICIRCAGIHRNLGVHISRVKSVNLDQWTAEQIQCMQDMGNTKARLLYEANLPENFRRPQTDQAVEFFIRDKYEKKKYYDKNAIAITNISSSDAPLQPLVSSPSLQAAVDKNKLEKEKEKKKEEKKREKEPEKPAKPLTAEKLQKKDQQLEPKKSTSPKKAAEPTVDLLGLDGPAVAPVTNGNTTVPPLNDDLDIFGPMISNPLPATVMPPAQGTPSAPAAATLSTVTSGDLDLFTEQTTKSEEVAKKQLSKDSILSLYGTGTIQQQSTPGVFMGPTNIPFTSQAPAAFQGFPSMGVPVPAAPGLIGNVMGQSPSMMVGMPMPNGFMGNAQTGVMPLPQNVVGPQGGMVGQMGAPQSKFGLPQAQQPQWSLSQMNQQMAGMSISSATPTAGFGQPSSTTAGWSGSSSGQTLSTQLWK
UniProt Q9BZG1: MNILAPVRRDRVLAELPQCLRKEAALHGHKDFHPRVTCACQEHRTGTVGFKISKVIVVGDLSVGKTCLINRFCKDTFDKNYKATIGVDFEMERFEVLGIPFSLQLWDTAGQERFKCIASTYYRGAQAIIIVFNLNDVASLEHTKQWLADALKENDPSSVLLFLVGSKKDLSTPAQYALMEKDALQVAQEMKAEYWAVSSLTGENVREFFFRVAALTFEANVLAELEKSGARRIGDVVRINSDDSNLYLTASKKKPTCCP
UniProt Q15633: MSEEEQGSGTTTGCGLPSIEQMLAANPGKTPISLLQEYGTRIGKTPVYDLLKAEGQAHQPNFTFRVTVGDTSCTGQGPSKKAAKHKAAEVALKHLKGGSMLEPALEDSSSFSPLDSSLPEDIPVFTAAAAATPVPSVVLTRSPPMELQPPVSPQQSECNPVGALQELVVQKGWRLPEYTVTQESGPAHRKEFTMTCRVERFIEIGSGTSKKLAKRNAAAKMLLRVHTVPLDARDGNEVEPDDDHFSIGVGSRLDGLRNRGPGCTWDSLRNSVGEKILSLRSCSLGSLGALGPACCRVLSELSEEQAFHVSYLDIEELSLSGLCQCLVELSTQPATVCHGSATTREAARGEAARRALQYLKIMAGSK
UniProt Q8NDX5: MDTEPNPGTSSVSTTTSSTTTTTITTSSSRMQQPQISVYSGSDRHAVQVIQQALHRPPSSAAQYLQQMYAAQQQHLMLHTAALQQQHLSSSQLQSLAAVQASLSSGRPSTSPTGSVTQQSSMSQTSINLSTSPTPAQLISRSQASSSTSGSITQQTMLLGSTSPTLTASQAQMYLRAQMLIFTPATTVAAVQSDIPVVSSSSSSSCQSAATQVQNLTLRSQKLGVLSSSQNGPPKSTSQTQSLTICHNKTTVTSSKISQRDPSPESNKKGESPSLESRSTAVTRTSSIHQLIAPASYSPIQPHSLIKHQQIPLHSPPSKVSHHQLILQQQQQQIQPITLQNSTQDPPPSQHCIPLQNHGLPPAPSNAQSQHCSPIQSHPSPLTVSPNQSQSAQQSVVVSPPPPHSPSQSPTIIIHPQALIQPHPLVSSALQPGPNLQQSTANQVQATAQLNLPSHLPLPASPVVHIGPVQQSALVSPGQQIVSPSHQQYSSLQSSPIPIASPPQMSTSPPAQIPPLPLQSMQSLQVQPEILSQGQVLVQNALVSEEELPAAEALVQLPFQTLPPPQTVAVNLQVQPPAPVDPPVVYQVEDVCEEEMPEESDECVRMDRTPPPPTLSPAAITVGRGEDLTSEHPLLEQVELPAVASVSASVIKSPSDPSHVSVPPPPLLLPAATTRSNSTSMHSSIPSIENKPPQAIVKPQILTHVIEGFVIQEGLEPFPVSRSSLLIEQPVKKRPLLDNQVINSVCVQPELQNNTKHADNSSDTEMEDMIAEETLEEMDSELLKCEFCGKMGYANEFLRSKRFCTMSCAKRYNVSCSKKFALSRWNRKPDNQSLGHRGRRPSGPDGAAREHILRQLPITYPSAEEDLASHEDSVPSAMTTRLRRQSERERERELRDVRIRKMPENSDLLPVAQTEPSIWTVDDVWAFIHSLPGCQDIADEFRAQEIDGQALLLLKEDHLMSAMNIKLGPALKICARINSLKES
UniProt Q9Y2S7: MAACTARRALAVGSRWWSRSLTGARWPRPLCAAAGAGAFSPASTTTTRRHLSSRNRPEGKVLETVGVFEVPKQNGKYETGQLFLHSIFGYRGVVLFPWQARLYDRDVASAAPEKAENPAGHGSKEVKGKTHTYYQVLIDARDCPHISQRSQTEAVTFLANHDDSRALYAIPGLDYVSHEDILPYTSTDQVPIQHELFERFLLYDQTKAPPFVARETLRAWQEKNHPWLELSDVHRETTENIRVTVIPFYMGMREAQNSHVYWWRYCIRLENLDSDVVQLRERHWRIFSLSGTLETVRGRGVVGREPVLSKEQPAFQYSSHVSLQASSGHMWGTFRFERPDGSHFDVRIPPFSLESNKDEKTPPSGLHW
UniProt Q9P013: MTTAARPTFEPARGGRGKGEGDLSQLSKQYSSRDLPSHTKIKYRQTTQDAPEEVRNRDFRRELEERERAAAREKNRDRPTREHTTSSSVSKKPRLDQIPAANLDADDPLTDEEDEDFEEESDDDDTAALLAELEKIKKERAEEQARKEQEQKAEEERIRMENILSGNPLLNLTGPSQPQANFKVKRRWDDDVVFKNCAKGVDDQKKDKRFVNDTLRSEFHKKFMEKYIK
UniProt P52788: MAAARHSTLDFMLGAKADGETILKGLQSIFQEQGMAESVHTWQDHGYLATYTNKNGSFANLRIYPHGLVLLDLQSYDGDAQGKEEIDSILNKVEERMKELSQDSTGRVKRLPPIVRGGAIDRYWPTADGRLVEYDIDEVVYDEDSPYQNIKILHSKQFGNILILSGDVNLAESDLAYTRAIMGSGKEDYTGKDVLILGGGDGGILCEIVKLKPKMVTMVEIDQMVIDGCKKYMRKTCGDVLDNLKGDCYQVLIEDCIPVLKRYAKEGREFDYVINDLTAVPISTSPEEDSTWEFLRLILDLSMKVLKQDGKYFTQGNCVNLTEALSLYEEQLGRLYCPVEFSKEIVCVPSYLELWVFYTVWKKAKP

Compound: [O-][N+](C(C1=C(C(O)=C2)NC(C(C=C3)=CC=C3Cl)C4C1C=CC4)=C2Cl)=O
Assay: melting temperature shift (compound 7 minus DMSO); higher = compound stabilises the protein
Conditions: 10 µM
Experimental: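 Thermal proteome profiling (TMT mass spectrometry) in intact DAOY medulloblastoma cells or DAOY lysates treated with 10 µM compound 7 or DMSO, heated at 10 temperatures from 40.5 to 73.8 °C for 3 min. Melting curves were fitted with the Bioconductor TPP package, and the melting point difference between compound and vehicle is reported per protein (single curve per condition).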

[1] = system: DAOY cell lysate, treatment time: 20 min, 4 °C
[2] = system: intact DAOY cells, treatment time: 90 min, 37 °C

STAT5B (UniProt P51692)
melting temperature shift [1]: -0.735 °C | melting temperature shift [2]: -0.754 °C

UniProt P33778
melting temperature shift [1]: 2.06 °C | melting temperature shift [2]: -1.2 °C

ACY1 (UniProt Q03154)
melting temperature shift [1]: -1.46 °C | melting temperature shift [2]: 4.06 °C

SURF6 (UniProt O75683)
melting temperature shift [1]: 0.633 °C | melting temperature shift [2]: 2.1 °C

RGS10 (UniProt O43665)
melting temperature shift [1]: 0.388 °C | melting temperature shift [2]: 0.376 °C

SLIRP (UniProt Q9GZT3)
melting temperature shift [1]: 0.744 °C | melting temperature shift [2]: -1.15 °C

GCC2 (UniProt Q8IWJ2)
melting temperature shift [1]: -0.314 °C | melting temperature shift [2]: 0.238 °C

UniProt P55290
melting temperature shift [1]: 1.49 °C | melting temperature shift [2]: 2.26 °C

ATG16L1 (UniProt Q676U5)
melting temperature shift [1]: -1.26 °C | melting temperature shift [2]: -0.885 °C

CDK2 (UniProt P24941)
melting temperature shift [1]: 0.273 °C | melting temperature shift [2]: -0.443 °C

PSMC3 (UniProt P17980)
melting temperature shift [1]: -0.607 °C | melting temperature shift [2]: -1.15 °C

UniProt Q9NYZ1
melting temperature shift [1]: 1.75 °C

UniProt P17544
melting temperature shift [2]: 0.889 °C

RBBP4 (UniProt Q09028)
melting temperature shift [1]: 0.228 °C | melting temperature shift [2]: 1.49 °C

UniProt Q9NRW1
melting temperature shift [1]: 1.63 °C | melting temperature shift [2]: -2.46 °C

ATE1 (UniProt O95260)
melting temperature shift [1]: -0.196 °C | melting temperature shift [2]: 1.23 °C

PARVA (UniProt Q9NVD7)
melting temperature shift [1]: 0.0574 °C | melting temperature shift [2]: -0.266 °C

CARS (UniProt P49589)
melting temperature shift [1]: -0.621 °C | melting temperature shift [2]: -0.91 °C

CERCAM (UniProt Q5T4B2)
melting temperature shift [2]: 3.76 °C

ATP5C1 (UniProt P36542)
melting temperature shift [1]: 1.96 °C | melting temperature shift [2]: -1.67 °C

WDR33 (UniProt Q9C0J8)
melting temperature shift [1]: -0.966 °C

UniProt Q9BSK2
melting temperature shift [1]: 3.99 °C

PLD1 (UniProt Q13393)
melting temperature shift [1]: 2.92 °C

UBE2R2 (UniProt Q712K3)
melting temperature shift [1]: -0.82 °C | melting temperature shift [2]: -0.859 °C

ATPAF1 (UniProt Q5TC12)
melting temperature shift [1]: 1.68 °C | melting temperature shift [2]: 0.196 °C

UniProt Q96S65
melting temperature shift [2]: 2.41 °C

UniProt Q7L9B9
melting temperature shift [1]: 1.86 °C

MON2 (UniProt Q7Z3U7)
melting temperature shift [1]: -0.478 °C | melting temperature shift [2]: -0.28 °C

NUB1 (UniProt Q9Y5A7)
melting temperature shift [1]: -0.399 °C | melting temperature shift [2]: 0.0823 °C

SH3GL2 (UniProt Q99962)
melting temperature shift [2]: -0.378 °C

ARFGEF2 (UniProt Q9Y6D5)
melting temperature shift [1]: -0.972 °C | melting temperature shift [2]: -1.21 °C

ITPR1 (UniProt Q14643)
melting temperature shift [2]: -0.447 °C

CDC5L (UniProt Q99459)
melting temperature shift [1]: 0.492 °C | melting temperature shift [2]: -0.388 °C

UniProt Q14146
melting temperature shift [1]: 0.376 °C

UniProt Q86YR5
melting temperature shift [2]: 0.43 °C

UniProt Q9H9S4
melting temperature shift [2]: -0.457 °C

UniProt O75845
melting temperature shift [1]: 0.904 °C | melting temperature shift [2]: -1.15 °C

SLC12A4 (UniProt Q9UP95)
melting temperature shift [1]: -0.418 °C | melting temperature shift [2]: -0.351 °C

RPL9 (UniProt P32969)
melting temperature shift [1]: 0.375 °C | melting temperature shift [2]: -0.859 °C

DENR (UniProt O43583)
melting temperature shift [1]: -0.571 °C | melting temperature shift [2]: -0.768 °C

UniProt Q5VZF2
melting temperature shift [1]: -1.29 °C | melting temperature shift [2]: -0.547 °C

UniProt Q9Y6A9
melting temperature shift [1]: 3.68 °C

PLOD2 (UniProt O00469)
melting temperature shift [1]: 0.0577 °C | melting temperature shift [2]: 0.699 °C

UTP4 (UniProt Q969X6)
melting temperature shift [1]: 1.14 °C | melting temperature shift [2]: 0.797 °C

YOD1 (UniProt Q5VVQ6)
melting temperature shift [2]: 0.803 °C

SCAF4 (UniProt O95104)
melting temperature shift [1]: 0.0797 °C | melting temperature shift [2]: -1.04 °C

SPRYD4 (UniProt Q8WW59)
melting temperature shift [1]: 0.571 °C | melting temperature shift [2]: -0.531 °C

CTCF (UniProt P49711)
melting temperature shift [1]: 0.766 °C | melting temperature shift [2]: -1.3 °C

COX6C (UniProt P09669)
melting temperature shift [1]: 2.94 °C

SF3B3 (UniProt Q15393)
melting temperature shift [1]: -0.195 °C | melting temperature shift [2]: 0.947 °C

TANC2 (UniProt Q9HCD6)
melting temperature shift [1]: 0.707 °C

B2M (UniProt P61769)
melting temperature shift [1]: 1.71 °C

MYDGF (UniProt Q969H8)
melting temperature shift [1]: -0.13 °C | melting temperature shift [2]: -1.15 °C

ITGA2 (UniProt P17301)
melting temperature shift [1]: 1.4 °C | melting temperature shift [2]: -0.728 °C

ATP13A3 (UniProt Q9H7F0)
melting temperature shift [1]: -1.17 °C | melting temperature shift [2]: -0.849 °C

MINK1 (UniProt Q8N4C8)
melting temperature shift [1]: -1.09 °C

ATG2B (UniProt Q96BY7)
melting temperature shift [1]: -0.145 °C | melting temperature shift [2]: -0.245 °C

UniProt Q6P4R8
melting temperature shift [1]: 1.17 °C

VPS37A (UniProt Q8NEZ2)
melting temperature shift [1]: -1.12 °C | melting temperature shift [2]: 0.425 °C

RANBP3 (UniProt Q9H6Z4)
melting temperature shift [1]: -2.67 °C | melting temperature shift [2]: 0.0832 °C

SORD (UniProt Q00796)
melting temperature shift [1]: -0.862 °C | melting temperature shift [2]: 0.323 °C

UniProt Q71UI9
melting temperature shift [1]: 1.49 °C | melting temperature shift [2]: -0.686 °C

UniProt Q8IZD4
melting temperature shift [1]: -2.11 °C | melting temperature shift [2]: -1.17 °C

KIAA1522 (UniProt Q9P206)
melting temperature shift [1]: -3.8 °C

PRRC2C (UniProt Q9Y520)
melting temperature shift [1]: -0.0195 °C

MGAT2 (UniProt Q10469)
melting temperature shift [1]: 1.46 °C | melting temperature shift [2]: -1.77 °C

UBXN7 (UniProt O94888)
melting temperature shift [1]: -0.524 °C | melting temperature shift [2]: 0.378 °C

SYMPK (UniProt Q92797)
melting temperature shift [1]: -0.457 °C | melting temperature shift [2]: -2.29 °C

UniProt Q8TDR4
melting temperature shift [1]: -0.195 °C

RPP25L (UniProt Q8N5L8)
melting temperature shift [1]: 0.475 °C | melting temperature shift [2]: -0.28 °C

ENG (UniProt P17813)
melting temperature shift [1]: -0.691 °C | melting temperature shift [2]: -0.284 °C

RBM7 (UniProt Q9Y580)
melting temperature shift [1]: -1.22 °C | melting temperature shift [2]: -1.02 °C

UniProt Q7Z7L1
melting temperature shift [1]: -1.78 °C | melting temperature shift [2]: -2.02 °C

UniProt P12109
melting temperature shift [1]: 0.614 °C | melting temperature shift [2]: 0.662 °C

GOLGA1 (UniProt Q92805)
melting temperature shift [1]: -0.0838 °C | melting temperature shift [2]: -2.59 °C

SLC16A3 (UniProt O15427)
melting temperature shift [1]: 1.94 °C

UniProt O75446
melting temperature shift [1]: 0.315 °C | melting temperature shift [2]: 0.702 °C

ZNF451 (UniProt Q9Y4E5)
melting temperature shift [1]: -1.57 °C

CHD3 (UniProt Q12873)
melting temperature shift [1]: -0.647 °C | melting temperature shift [2]: -0.437 °C

RPN2 (UniProt P04844)
melting temperature shift [1]: 1.42 °C | melting temperature shift [2]: -0.472 °C

UniProt P05937
melting temperature shift [2]: 0.178 °C

MTX1 (UniProt Q13505)
melting temperature shift [1]: 1.28 °C | melting temperature shift [2]: -0.0211 °C

UniProt Q8WXI2
melting temperature shift [1]: -1.07 °C | melting temperature shift [2]: 0.486 °C

TYMS (UniProt P04818)
melting temperature shift [1]: -0.564 °C | melting temperature shift [2]: -0.458 °C

BTBD10 (UniProt Q9BSF8)
melting temperature shift [1]: -0.313 °C

UniProt O14791
melting temperature shift [2]: -0.463 °C

GYG1 (UniProt P46976)
melting temperature shift [1]: -2.25 °C | melting temperature shift [2]: -0.379 °C

PAIP1 (UniProt Q9H074)
melting temperature shift [1]: -1.11 °C | melting temperature shift [2]: -0.675 °C

LAMTOR3 (UniProt Q9UHA4)
melting temperature shift [1]: 1.29 °C | melting temperature shift [2]: -0.816 °C

ERLEC1 (UniProt Q96DZ1)
melting temperature shift [1]: 0.977 °C | melting temperature shift [2]: -0.0874 °C

UniProt Q5THK1
melting temperature shift [1]: 1.42 °C

SMAP1 (UniProt Q8IYB5)
melting temperature shift [1]: -0.7 °C | melting temperature shift [2]: -0.0545 °C

UniProt P07199
melting temperature shift [1]: 1.67 °C

UniProt Q8ND61
melting temperature shift [2]: 5.45 °C

UniProt Q9BZG1
melting temperature shift [1]: 0.0264 °C | melting temperature shift [2]: -0.506 °C

TARBP2 (UniProt Q15633)
melting temperature shift [1]: 0.259 °C

UniProt Q8NDX5
melting temperature shift [1]: 1.74 °C

POLDIP2 (UniProt Q9Y2S7)
melting temperature shift [1]: 0.783 °C | melting temperature shift [2]: -0.9 °C

UniProt Q9Y297
melting temperature shift [2]: -1.65 °C

GPX8 (UniProt Q8TED1)
melting temperature shift [1]: 1.43 °C | melting temperature shift [2]: -0.677 °C

RPS17 (UniProt P08708)
melting temperature shift [1]: -0.217 °C | melting temperature shift [2]: -0.756 °C

GABARAPL2 (UniProt P60520)
melting temperature shift [1]: -0.699 °C | melting temperature shift [2]: 0.152 °C

CWC15 (UniProt Q9P013)
melting temperature shift [1]: -4.86 °C

UniProt Q15125
melting temperature shift [1]: 3.29 °C

SMS (UniProt P52788)
melting temperature shift [1]: -1.03 °C | melting temperature shift [2]: -0.144 °C

PLRG1 (UniProt O43660)
melting temperature shift [1]: 0.436 °C | melting temperature shift [2]: 1.86 °C

OLA1 (UniProt Q9NTK5)
melting temperature shift [1]: -0.39 °C | melting temperature shift [2]: -0.778 °C

TSC2 (UniProt P49815)
melting temperature shift [1]: 0.231 °C | melting temperature shift [2]: 0.148 °C

HMGA1 (UniProt P17096)
melting temperature shift [1]: 4.05 °C

SRP19 (UniProt P09132)
melting temperature shift [1]: -0.935 °C | melting temperature shift [2]: -1.19 °C

UniProt Q9H672
melting temperature shift [2]: 0.697 °C

UniProt P13928
melting temperature shift [2]: -0.643 °C

UniProt Q93062
melting temperature shift [1]: -0.291 °C | melting temperature shift [2]: 4.84 °C

ATP5B (UniProt P06576)
melting temperature shift [1]: 1.48 °C | melting temperature shift [2]: -0.411 °C

PPCS (UniProt Q9HAB8)
melting temperature shift [1]: -0.399 °C | melting temperature shift [2]: 0.117 °C

ILF2 (UniProt Q12905)
melting temperature shift [1]: -0.199 °C | melting temperature shift [2]: -0.343 °C
